Holding throughout (test): log2 fold change, soluble protein after heating vs DMSO (PISA); higher = thermal stabilisation; K562 lysate, 10 uM; active = over 0.2 and 3.5 SD of the protein, either way, in both replicates (recomputed)
Compound in assay [1]: NCC(=O)Nc1ccc(-n2nc(C(F)(F)F)cc2-c2ccc3c(ccc4ccccc43)c2)cc1
The method, boiled down: (§1)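 Dounce homogenisation of K562 pellets in PBS pH 7.4 with 1 mM MgCl2 produced a crude extract, used at 1 mg/mL protein. Exposure to 10 μM compound lasted 30 min, and aliquots were then heated for 3 min across 48°C-58°C, pooled and brought to 0.5% NP-40 at 4°C. The supernatant after 21,000xg for 90 min was quantified by TMTpro 16plex LC-MS/MS with channel sums equalised. Duplicate values are given as log-two fold change in thermal stability relative to solvent controls.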

By UniProt entry, the sequences of proteins in these tests, tags left out. Where a name states a change or a piece, a line headed by the entry shows the natural chain unless it says otherwise.
UniProt Q14CS0: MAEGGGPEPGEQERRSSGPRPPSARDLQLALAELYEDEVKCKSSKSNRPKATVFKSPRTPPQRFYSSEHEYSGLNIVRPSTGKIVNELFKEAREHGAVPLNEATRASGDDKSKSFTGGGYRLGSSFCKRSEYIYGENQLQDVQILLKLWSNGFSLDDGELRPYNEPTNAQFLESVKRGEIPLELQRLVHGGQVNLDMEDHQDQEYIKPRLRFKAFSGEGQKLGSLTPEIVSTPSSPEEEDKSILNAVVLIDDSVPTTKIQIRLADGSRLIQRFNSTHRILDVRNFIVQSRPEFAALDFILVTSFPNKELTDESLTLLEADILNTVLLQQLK
UniProt P09936: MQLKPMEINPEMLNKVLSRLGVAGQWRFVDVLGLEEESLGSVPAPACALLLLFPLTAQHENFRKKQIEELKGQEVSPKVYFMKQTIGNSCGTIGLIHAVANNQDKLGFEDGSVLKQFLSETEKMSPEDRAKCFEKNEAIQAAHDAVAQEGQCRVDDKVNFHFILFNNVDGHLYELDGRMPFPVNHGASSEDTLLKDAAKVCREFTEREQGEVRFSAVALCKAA
UniProt Q96ET8: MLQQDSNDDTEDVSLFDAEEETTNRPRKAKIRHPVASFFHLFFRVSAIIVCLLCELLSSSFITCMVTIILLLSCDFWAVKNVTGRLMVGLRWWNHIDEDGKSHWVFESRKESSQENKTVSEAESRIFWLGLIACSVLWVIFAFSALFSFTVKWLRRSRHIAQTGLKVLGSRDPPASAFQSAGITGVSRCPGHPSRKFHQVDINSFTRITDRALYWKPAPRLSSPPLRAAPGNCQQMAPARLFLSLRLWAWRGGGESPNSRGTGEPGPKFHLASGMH
UniProt P04350, whole entry, looked up: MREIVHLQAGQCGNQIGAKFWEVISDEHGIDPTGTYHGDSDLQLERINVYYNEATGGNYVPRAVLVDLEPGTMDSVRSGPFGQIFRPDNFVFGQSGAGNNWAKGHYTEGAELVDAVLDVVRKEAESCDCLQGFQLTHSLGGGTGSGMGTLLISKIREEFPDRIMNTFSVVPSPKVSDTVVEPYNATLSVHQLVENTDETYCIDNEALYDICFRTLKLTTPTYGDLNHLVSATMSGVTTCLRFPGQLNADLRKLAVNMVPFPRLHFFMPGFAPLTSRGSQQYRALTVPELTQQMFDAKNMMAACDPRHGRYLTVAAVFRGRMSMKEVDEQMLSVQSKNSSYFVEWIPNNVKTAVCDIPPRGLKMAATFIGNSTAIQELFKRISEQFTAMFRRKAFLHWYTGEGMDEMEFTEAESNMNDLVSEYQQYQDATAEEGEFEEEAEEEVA
UniProt Q86VQ6, whole entry, looked up: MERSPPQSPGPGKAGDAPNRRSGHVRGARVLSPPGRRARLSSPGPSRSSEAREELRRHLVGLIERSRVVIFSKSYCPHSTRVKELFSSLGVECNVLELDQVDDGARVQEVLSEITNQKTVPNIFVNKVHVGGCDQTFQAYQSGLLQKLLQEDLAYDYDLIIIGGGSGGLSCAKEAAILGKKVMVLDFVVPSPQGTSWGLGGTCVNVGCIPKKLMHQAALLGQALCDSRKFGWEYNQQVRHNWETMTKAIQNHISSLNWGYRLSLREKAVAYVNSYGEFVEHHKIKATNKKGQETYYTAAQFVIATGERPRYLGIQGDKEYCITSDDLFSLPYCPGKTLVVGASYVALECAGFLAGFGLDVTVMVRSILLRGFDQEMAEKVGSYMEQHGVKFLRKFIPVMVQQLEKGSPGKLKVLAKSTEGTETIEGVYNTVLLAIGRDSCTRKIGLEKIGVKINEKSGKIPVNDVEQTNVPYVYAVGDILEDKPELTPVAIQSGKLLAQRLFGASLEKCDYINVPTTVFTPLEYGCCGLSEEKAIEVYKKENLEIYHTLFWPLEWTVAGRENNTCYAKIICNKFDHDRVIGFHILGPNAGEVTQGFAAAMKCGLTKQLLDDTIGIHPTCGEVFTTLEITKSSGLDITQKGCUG
UniProt O94941: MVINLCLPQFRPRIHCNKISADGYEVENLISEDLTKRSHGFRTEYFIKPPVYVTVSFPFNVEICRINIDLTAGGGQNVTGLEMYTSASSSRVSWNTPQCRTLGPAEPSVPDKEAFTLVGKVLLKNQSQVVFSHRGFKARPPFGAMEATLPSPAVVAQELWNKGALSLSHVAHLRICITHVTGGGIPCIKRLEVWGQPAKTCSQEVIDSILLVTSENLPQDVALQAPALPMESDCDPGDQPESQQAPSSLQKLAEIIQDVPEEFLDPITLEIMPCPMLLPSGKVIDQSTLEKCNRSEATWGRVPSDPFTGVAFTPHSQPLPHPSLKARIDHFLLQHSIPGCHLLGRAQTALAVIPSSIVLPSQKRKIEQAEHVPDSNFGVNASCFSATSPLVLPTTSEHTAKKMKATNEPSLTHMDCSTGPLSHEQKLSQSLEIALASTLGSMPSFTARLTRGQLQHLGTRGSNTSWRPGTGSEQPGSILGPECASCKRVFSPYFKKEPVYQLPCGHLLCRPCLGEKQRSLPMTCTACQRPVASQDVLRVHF
UniProt P41226: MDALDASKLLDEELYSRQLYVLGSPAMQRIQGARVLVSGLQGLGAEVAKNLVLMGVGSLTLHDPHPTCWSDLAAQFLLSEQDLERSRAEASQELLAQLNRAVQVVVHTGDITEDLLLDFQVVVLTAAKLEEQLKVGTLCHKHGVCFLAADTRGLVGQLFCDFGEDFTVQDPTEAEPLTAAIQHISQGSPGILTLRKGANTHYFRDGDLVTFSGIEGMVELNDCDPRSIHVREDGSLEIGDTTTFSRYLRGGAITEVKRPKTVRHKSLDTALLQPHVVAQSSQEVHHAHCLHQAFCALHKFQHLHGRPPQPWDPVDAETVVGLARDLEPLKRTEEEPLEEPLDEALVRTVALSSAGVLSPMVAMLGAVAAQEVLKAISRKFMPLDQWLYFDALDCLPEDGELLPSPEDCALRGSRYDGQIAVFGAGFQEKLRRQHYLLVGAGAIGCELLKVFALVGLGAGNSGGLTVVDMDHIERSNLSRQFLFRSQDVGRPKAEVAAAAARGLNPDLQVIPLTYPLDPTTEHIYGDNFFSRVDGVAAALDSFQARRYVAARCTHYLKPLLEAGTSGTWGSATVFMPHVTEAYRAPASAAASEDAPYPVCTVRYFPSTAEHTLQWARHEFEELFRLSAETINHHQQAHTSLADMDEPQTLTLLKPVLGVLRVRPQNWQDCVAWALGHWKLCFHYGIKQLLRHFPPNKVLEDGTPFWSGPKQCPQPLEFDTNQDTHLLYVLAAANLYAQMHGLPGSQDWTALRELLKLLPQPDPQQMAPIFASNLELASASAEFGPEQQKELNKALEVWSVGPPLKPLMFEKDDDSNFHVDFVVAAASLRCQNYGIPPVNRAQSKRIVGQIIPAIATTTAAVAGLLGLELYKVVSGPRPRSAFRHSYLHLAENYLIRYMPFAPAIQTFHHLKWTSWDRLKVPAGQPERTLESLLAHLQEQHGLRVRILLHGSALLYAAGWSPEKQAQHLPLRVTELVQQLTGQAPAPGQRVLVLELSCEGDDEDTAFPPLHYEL
UniProt Q6PKC3: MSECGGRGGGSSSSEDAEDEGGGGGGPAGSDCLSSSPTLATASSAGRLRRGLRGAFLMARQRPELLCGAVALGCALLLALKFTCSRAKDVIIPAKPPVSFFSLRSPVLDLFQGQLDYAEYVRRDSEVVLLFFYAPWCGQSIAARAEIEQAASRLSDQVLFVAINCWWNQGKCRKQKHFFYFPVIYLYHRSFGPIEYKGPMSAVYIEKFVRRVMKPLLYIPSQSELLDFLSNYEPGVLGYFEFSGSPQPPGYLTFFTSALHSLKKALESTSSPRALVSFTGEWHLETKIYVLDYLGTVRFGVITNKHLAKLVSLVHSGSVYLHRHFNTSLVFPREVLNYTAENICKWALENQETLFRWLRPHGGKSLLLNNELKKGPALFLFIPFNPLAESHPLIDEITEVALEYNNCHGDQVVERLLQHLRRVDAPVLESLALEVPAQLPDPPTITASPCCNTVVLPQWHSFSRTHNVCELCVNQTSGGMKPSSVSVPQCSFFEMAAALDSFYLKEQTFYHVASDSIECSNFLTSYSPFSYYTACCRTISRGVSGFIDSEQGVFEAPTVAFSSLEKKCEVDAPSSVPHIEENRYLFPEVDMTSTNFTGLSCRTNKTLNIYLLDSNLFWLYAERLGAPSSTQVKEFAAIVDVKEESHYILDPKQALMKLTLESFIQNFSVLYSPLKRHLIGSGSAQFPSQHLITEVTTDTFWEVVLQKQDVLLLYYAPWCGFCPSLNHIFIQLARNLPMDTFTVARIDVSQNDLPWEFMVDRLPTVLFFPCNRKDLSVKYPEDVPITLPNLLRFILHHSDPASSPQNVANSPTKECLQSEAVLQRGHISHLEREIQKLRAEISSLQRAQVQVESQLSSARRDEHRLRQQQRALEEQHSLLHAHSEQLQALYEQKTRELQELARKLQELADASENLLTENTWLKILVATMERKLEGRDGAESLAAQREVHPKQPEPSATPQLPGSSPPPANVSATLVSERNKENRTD
UniProt Q9NNW7, whole entry, looked up: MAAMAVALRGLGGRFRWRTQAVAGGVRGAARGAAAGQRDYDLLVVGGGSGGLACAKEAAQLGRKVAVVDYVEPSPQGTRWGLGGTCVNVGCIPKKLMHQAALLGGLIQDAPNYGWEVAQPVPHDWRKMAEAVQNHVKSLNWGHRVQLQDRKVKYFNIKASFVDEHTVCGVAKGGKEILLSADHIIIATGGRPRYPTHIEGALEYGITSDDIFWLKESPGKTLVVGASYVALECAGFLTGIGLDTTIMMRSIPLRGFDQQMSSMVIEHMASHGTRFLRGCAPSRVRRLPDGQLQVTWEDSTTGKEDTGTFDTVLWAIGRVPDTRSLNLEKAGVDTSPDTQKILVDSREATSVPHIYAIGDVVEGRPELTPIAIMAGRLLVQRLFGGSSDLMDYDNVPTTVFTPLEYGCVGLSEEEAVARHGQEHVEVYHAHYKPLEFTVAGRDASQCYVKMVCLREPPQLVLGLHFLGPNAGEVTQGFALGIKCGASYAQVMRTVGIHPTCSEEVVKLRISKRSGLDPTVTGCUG
UniProt Q14157: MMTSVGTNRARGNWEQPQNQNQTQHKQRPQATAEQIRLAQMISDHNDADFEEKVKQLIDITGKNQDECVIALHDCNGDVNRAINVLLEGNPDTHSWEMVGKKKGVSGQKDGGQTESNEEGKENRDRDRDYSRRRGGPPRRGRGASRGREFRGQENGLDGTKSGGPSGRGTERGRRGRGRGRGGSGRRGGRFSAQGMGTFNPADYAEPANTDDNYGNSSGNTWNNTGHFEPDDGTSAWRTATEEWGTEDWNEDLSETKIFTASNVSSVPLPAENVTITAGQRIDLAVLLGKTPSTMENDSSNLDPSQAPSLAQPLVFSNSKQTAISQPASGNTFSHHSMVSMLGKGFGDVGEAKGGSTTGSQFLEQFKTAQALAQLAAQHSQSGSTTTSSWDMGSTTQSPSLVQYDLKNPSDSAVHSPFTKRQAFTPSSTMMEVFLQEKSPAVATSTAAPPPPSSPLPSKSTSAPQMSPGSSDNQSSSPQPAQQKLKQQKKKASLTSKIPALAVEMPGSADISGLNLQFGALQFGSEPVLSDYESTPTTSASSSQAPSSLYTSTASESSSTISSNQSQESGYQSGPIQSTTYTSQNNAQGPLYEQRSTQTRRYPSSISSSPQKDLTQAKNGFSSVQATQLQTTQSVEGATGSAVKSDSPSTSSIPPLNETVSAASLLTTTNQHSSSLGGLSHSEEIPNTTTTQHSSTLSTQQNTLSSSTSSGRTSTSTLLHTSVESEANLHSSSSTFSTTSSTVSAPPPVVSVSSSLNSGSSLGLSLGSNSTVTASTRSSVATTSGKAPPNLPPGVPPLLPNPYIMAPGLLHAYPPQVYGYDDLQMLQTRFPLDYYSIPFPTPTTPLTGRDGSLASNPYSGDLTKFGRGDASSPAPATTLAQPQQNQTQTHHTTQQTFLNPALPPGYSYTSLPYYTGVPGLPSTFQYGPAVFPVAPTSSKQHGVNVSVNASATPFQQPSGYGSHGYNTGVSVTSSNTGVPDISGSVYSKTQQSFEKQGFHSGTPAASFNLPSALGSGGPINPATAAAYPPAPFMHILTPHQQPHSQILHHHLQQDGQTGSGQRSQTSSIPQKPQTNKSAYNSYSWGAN

Compound in a further assay: O=C(CCCCCCC(=O)Nc1ccccc1)NO [vorinostat]
In a few lines: as §1

Compound in the next assay: O=C(O)c1ccc2c(c1)nc(Nc1cccc(Cl)c1)c1ccncc12 [silmitasertib]
The method, boiled down:
as §1

Compound in the next assay: c1cn2cc(-c3ccc4cn[nH]c4c3)nc(Nc3ccc(N4CCOCC4)cc3)c2n1 [entospletinib]
In a few lines:
as §1

Compound in assay [2]: O=C1NC(=O)C(c2cnc3ccccn23)=C1c1cn2c3c(cc(F)cc13)CN(C(=O)N1CCCCC1)CC2
The method, boiled down: as §1

Drawing on the supplement of paper PMC10849652, this text covers log2 fold change for 15 targets.

The other results are listed elsewhere or left out.

For UBXN2B (UniProt Q14CS0), the log2 fold change in assay [1] was inactive: 0.095; in the assay with vorinostat, inactive: 0.085; with silmitasertib, inactive: 0.053; in the assay with entospletinib it was inactive: -0.032.
As for UBAP2, A0A0D9SFI5, the log2 fold change in assay [2] is inactive: -0.094.
Regarding U2AF1L5 (UniProt P0DN76), the log2 fold change with vorinostat was inactive: -0.363; with silmitasertib it was inactive: -0.069; in the assay with entospletinib it was inactive: 0.016.
As for UCHL1 (UniProt P09936), in the assay with entospletinib, the log2 fold change is inactive: -0.872.
As to TVP23C (UniProt Q96ET8), the log2 fold change in assay [2] is inactive: -0.083.
Take TUBB4A (UniProt P04350): the log2 fold change in the assay with vorinostat was active: -0.448; with silmitasertib it was inactive: 0.065; in assay [2], inactive: 0.095; with entospletinib it was inactive: -0.056.
Regarding UBA2 (UniProt U3KQ93), the log2 fold change with vorinostat was inactive: -0.117; with silmitasertib it was inactive: -0.055; in assay [2], inactive: 0.158; with entospletinib, inactive: 0.055.
Take TXNRD3 (UniProt Q86VQ6): the log2 fold change was inactive: 0.13 with vorinostat, inactive: -0.1 in the assay with silmitasertib and inactive: -0.027 with entospletinib.
For the target UBOX5 (UniProt O94941), the log2 fold change with vorinostat was inactive: -0.231; with silmitasertib it was inactive: -0.063.
Take U2AF2 (UniProt K7ELP8): the log2 fold change in assay [1] was inactive: 0.006; in the assay with entospletinib it was inactive: 0.072.
On to TXNDC2 (UniProt Q86VQ3), for which the values for the log2 fold change (in the assay with vorinostat; with silmitasertib; in assay [2]) were inactive: -0.052, inactive: -0.095 and inactive: -0.037, respectively.
Take UBA7 (UniProt P41226): the log2 fold change with vorinostat was inactive: 0.088; with silmitasertib, inactive: -0.025; in assay [2] it was inactive: 0.06.
Consider TXNDC11 (UniProt Q6PKC3), for which the log2 fold change with vorinostat is inactive: 0.138; in the assay with silmitasertib it was inactive: -0.091; in assay [2], inactive: 0.018; with entospletinib it was inactive: -0.042.
With TXNRD2 isoform 3 (UniProt Q9NNW7), the log2 fold change in the assay with vorinostat was active: -0.94; with silmitasertib, inactive: -0.194.
In the case of UBAP2L isoform 1 (UniProt Q14157), in assay [2], the log2 fold change was inactive: 0.088.
